Values of other authors, collected in patent US20250313903A1, “NEOANTIGEN IMMUNOTHERAPY” (Gradalis, Inc., priority 2023, published 2025).
Where two headings read alike, the source gives them in different places. For at least one compound, name, drawing or mass did not settle the structure.

Legend:
[1] = system: advanced renal cell carcinoma; conditions: Avelumab + Axitinib vs. sunitinib
[2] = system: advanced, intermediate-poor risk clear cell renal cell carcinoma

Q: With `CCN(CC)CCNC(=O)c1c(C)[nH]c(/C=C2\C(=O)Nc3ccc(F)cc32)c1C` [sunitinib] as the compound, how does the ORR ([1]; PD-L1+) read?
A: Its ORR is 25.5%.

Q: And the “median PFS” value ([1]; PD-L1+)?
A: Its value is 7.2 months.

Q: What about the “median PFS” value ([1]; overall population) of the same compound?
A: The value was “vs. 8.4 (p < 0.001)”.

Q: What about the PFS ([2]; in vivo) of the same compound?
A: The PFS was 8.4 months.

Q: And the “median OS” value ([2]; in vivo)?
A: Its value is 26 months.

Q: What about the response rate ([2]; treatment-naive, irrespective of PD-L1) of the same compound?
A: Its response rate is 27%.
